Reference: patent US11364275B2 (priority 2017, dated 2022)

Experiment: peptide made by a vendor (Fmoc solid-phase peptide synthesis; rink amide resin; HOBT and DIC)
Settings: whole synthesis, run 1

Substance: [Dab]I[Dab][dF]L[Dab][dV]LS
- final HPLC purity (Method A, 220 nm): 98%
- final HPLC purity (Method B): 96%

Where no end group is shown, it is not given here. [ ]: non-standard residue; d: D form. Dab = NCC[C@H](N)C(=O)O
